Assay results published in the supplement of paper PMC4604168 (melanoma cell lines).
This is one part of the list. Repeats are few or missing, and single values can be far off.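 Cells were imaged in 1,536-well plates, and nuclei stained with an antibody against cleaved PARP were counted against all DNA-stained nuclei to give the apoptosis fraction. Screening doses were chosen to leave most cells alive, and resting and induced cleaved-PARP levels differ strongly between cell lines.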

Tests used:
Experiment in all cases: cleaved PARP positive nuclei fraction relative to DMSO control; melanoma cells; higher = more apoptosis
Details in all cases: library dose: low library concentration; 72 h
501Mel = tested on: 501Mel
A101D = tested on: A101D
A2058 = tested on: A2058
A375 = tested on: A375
C32 = tested on: C32
CBRC008 = tested on: CBRC008 (line from a melanoma biopsy)
CBRC013 = tested on: CBRC013 (line from a melanoma biopsy)
CBRC014 = tested on: CBRC014 (line from a melanoma biopsy)
CBRC016 = tested on: CBRC016 (line from a melanoma biopsy)
CBRC017 = tested on: CBRC017 (line from a melanoma biopsy)

Row | Compound | cleaved PARP positive nuclei fraction (501Mel) [%] | cleaved PARP positive nuclei fraction (A101D) [%] | cleaved PARP positive nuclei fraction (A2058) [%] | cleaved PARP positive nuclei fraction (A375) [%] | cleaved PARP positive nuclei fraction (C32) [%] | cleaved PARP positive nuclei fraction (CBRC008) [%] | cleaved PARP positive nuclei fraction (CBRC013) [%] | cleaved PARP positive nuclei fraction (CBRC014) [%] | cleaved PARP positive nuclei fraction (CBRC016) [%] | cleaved PARP positive nuclei fraction (CBRC017) [%]
1 | Cn1sc(=O)n(Cc2ccccc2)c1=O + COc1cc(Nc2ncc(F)c(Nc3ccc4c(n3)NC(=O)C(C)(C)O4)n2)cc(OC)c1OC [Tamatinib] (first compound 0.4 µM, partner dose 0.4 µM) | 74.5 | 100 | 138 | 247 | 117 | 194 | 107 | 74.5 | 100 | 75.3
2 | NC1(c2ccc(-c3nc4ccn5c(=O)[nH]nc5c4cc3-c3ccccc3)cc2)CCC1 + CC(C)(C)c1cnc(CSc2cnc(NC(=O)C3CCNCC3)s2)o1 [SNS-032] (first compound 0.4 µM, partner dose 0.01 µM) | 88.1 | 189 | 40.9 | 114 | 98.2 | 71.8 | 90.6 | 64.2 | 87.7 | 113
3 | CCCCCCCCc1ccc(CCC(N)(CO)CO)cc1 [fingolimod] + O=C(Nc1cccc(Cl)c1)Nc1ncc(CCNc2ncnc3ccsc23)s1 [SNS314] (first compound 2 µM, partner dose 0.0008 µM) | 186 | 100 | 68.5 | 406 | 175 | 190 | 119 | 492 | 27.8 | 158
4 | Cn1sc(=O)n(Cc2ccccc2)c1=O + O=C(Nc1cccc(Cl)c1)Nc1ncc(CCNc2ncnc3ccsc23)s1 [SNS314] (first compound 0.4 µM, partner dose 0.0008 µM) | 152 | 19.3 | 104 | 96.4 | 44.8 | 133 | 109 | 89.8 | 107 | 82.3
5 | Cn1cnc2c(F)c(Nc3ccc(Br)cc3Cl)c(C(=O)NOCCO)cc21 [selumetinib] + CO[C@@H]1[C@H](N(C)C(=O)c2ccccc2)C[C@H]2O[C@]1(C)n1c3ccccc3c3c4c(c5c6ccccc6n2c5c31)C(=O)NC4 [Midostaurin] (first compound 0.015 µM, partner dose 0.08 µM) | 97.4 | 94.3 | 99.4 | 85.1 | 110 | 266 | 135 | 91.7 | 250 | 117
6 | CC1(C)CCC(c2ccc(Cl)cc2)=C(CN2CCN(c3ccc(C(=O)NS(=O)(=O)c4ccc(N[C@H](CCN5CCOCC5)CSc5ccccc5)c(S(=O)(=O)C(F)(F)F)c4)cc3)CC2)C1 + CN(NC(=O)CC(=O)NN(C)C(=S)c1ccccc1)C(=S)c1ccccc1 [STA4783] (first compound 0.4 µM, partner dose 0.006 µM) | 63 | 218 | 89.4 | 1010 | 1960 | 1910 | 520 | 11700 | 710 | 902
7 | CC(=O)O[C@@]12CO[C@@H]1C[C@H](O)[C@@]1(C)C(=O)[C@H](O)C3=C(C)[C@@H](OC(=O)[C@H](O)[C@@H](NC(=O)OC(C)(C)C)c4ccccc4)C[C@@](O)([C@@H](OC(=O)c4ccccc4)[C@H]21)C3(C)C [Docetaxel] + OCCn1cc(-c2cnc3nnn(Cc4ccc5ncccc5c4)c3n2)cn1 [PF04217903] (first compound 0.0001 µM, partner dose 1 µM) | 185 | 117 | 5210 | 6710 | 774 | 359 | 125 | 122 | 262 | 159
8 | Cn1cnc2c(F)c(Nc3ccc(Br)cc3Cl)c(C(=O)NOCCO)cc21 [selumetinib] + O=C(CCCCCCC(=O)Nc1ccccc1)NO [vorinostat] (first compound 0.015 µM, partner dose 0.08 µM) | 189 | 83.5 | 111 | 28.6 | 77.5 | 47.7 | 151 | 91.2 | 182 | 213
9 | CS(=O)(=O)c1ccc(C(=O)Nc2ccc(Cl)c(-c3ccccn3)c2)c(Cl)c1 [vismodegib] + C=CCn1c(=O)c2cnc(Nc3ccc(N4CCN(C)CC4)cc3)nc2n1-c1cccc(C(C)(C)O)n1 [MK1775] (first compound 1 µM, partner dose 0.02 µM) | 83.8 | 270 | 60.1 | 434 | 129 | 111 | 130 | 116 | 208 | 84.7
10 | CC1(C)CCC(c2ccc(Cl)cc2)=C(CN2CCN(c3ccc(C(=O)NS(=O)(=O)c4ccc(N[C@H](CCN5CCOCC5)CSc5ccccc5)c(S(=O)(=O)C(F)(F)F)c4)cc3)CC2)C1 + OCCn1cc(-c2cnc3nnn(Cc4ccc5ncccc5c4)c3n2)cn1 [PF04217903] (first compound 0.4 µM, partner dose 1 µM) | 231 | 120 | 77.2 | 202 | 1170 | 1100 | 43.2 | 349 | 499 | 1200

Two entries from above in another layout:
Row	Compound	cleaved PARP positive nuclei fraction (501Mel) [%]	cleaved PARP positive nuclei fraction (A101D) [%]	cleaved PARP positive nuclei fraction (A2058) [%]	cleaved PARP positive nuclei fraction (A375) [%]	cleaved PARP positive nuclei fraction (C32) [%]	cleaved PARP positive nuclei fraction (CBRC008) [%]	cleaved PARP positive nuclei fraction (CBRC013) [%]	cleaved PARP positive nuclei fraction (CBRC014) [%]	cleaved PARP positive nuclei fraction (CBRC016) [%]	cleaved PARP positive nuclei fraction (CBRC017) [%]
8	Cn1cnc2c(F)c(Nc3ccc(Br)cc3Cl)c(C(=O)NOCCO)cc21 [selumetinib] + O=C(CCCCCCC(=O)Nc1ccccc1)NO [vorinostat] (first compound 0.015 µM, partner dose 0.08 µM)	189	83.5	111	28.6	77.5	47.7	151	91.2	182	213
9	CS(=O)(=O)c1ccc(C(=O)Nc2ccc(Cl)c(-c3ccccn3)c2)c(Cl)c1 [vismodegib] + C=CCn1c(=O)c2cnc(Nc3ccc(N4CCN(C)CC4)cc3)nc2n1-c1cccc(C(C)(C)O)n1 [MK1775] (first compound 1 µM, partner dose 0.02 µM)	83.8	270	60.1	434	129	111	130	116	208	84.7
